Measurements reported in the supplement of paper PMC11006884.
This is a selection; strong and weak results do not stand in their true shares.

Chains of the proteins cited; added tags and fusions are not shown. Lines headed by an entry give the natural chain unless they say otherwise; changes in a name come on top.
UniProt P40926: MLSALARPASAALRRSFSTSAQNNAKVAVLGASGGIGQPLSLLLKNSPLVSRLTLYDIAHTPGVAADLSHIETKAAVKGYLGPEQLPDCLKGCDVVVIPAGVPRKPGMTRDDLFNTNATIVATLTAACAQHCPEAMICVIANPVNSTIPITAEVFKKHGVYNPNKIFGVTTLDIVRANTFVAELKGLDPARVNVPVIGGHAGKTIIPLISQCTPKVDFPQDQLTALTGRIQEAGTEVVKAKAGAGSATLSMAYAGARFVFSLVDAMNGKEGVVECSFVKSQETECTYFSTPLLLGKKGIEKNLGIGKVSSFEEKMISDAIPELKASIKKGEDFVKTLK
UniProt P42166: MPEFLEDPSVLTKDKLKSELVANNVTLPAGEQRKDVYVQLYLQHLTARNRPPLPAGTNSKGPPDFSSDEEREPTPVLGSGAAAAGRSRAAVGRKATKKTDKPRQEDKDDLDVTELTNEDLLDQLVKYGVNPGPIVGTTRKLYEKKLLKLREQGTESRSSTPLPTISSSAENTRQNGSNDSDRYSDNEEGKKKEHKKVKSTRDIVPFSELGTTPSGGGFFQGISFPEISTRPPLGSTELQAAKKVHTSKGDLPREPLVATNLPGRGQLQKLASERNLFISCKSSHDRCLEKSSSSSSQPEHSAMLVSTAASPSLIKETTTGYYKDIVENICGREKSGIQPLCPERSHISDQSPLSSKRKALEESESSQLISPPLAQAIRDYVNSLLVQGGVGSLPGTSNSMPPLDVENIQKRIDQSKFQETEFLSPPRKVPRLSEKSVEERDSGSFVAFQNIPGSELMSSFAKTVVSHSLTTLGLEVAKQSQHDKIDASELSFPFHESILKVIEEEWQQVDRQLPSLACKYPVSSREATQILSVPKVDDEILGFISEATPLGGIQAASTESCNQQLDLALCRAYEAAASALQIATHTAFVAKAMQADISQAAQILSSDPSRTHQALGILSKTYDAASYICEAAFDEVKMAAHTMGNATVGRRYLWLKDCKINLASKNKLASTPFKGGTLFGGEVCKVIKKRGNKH
UniProt P41091, whole entry, looked up: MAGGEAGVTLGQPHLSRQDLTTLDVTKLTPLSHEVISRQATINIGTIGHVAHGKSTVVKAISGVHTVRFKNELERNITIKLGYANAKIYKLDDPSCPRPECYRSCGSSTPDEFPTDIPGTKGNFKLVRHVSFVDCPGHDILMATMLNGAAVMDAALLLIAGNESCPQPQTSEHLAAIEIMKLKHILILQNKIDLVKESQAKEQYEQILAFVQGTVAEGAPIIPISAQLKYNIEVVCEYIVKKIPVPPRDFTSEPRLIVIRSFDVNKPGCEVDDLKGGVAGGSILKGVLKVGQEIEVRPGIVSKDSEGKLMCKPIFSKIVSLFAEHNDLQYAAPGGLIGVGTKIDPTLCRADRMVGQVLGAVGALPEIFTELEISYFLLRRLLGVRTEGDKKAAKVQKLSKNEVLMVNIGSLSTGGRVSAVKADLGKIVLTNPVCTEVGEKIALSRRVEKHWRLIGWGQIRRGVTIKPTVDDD
UniProt P37268: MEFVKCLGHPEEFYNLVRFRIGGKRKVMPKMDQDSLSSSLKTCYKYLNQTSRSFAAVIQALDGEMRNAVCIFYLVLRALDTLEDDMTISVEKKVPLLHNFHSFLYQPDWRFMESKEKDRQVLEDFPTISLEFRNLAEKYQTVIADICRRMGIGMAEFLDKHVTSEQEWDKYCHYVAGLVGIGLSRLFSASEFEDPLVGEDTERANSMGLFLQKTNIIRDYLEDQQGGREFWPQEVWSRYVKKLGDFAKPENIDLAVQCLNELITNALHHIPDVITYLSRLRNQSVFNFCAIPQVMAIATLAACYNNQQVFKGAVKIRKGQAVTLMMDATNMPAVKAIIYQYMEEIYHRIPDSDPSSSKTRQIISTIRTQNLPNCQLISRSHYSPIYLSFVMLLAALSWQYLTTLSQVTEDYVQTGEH
UniProt P31040: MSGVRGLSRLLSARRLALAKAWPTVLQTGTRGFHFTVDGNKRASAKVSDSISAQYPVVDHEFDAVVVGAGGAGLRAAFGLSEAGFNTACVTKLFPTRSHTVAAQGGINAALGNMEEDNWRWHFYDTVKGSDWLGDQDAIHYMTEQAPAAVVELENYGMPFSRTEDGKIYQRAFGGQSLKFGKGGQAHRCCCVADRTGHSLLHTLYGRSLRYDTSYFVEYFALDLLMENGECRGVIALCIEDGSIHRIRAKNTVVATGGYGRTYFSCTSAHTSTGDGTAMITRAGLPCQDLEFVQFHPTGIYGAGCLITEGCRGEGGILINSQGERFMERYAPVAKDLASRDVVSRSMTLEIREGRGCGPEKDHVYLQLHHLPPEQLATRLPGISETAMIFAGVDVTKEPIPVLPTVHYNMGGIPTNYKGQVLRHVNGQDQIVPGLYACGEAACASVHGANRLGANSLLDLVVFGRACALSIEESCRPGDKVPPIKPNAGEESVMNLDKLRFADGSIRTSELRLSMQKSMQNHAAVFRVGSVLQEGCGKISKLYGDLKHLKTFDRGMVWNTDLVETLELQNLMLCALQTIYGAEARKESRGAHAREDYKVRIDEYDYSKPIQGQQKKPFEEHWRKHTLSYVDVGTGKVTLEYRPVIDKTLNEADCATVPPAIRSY
UniProt P42356, whole entry, looked up: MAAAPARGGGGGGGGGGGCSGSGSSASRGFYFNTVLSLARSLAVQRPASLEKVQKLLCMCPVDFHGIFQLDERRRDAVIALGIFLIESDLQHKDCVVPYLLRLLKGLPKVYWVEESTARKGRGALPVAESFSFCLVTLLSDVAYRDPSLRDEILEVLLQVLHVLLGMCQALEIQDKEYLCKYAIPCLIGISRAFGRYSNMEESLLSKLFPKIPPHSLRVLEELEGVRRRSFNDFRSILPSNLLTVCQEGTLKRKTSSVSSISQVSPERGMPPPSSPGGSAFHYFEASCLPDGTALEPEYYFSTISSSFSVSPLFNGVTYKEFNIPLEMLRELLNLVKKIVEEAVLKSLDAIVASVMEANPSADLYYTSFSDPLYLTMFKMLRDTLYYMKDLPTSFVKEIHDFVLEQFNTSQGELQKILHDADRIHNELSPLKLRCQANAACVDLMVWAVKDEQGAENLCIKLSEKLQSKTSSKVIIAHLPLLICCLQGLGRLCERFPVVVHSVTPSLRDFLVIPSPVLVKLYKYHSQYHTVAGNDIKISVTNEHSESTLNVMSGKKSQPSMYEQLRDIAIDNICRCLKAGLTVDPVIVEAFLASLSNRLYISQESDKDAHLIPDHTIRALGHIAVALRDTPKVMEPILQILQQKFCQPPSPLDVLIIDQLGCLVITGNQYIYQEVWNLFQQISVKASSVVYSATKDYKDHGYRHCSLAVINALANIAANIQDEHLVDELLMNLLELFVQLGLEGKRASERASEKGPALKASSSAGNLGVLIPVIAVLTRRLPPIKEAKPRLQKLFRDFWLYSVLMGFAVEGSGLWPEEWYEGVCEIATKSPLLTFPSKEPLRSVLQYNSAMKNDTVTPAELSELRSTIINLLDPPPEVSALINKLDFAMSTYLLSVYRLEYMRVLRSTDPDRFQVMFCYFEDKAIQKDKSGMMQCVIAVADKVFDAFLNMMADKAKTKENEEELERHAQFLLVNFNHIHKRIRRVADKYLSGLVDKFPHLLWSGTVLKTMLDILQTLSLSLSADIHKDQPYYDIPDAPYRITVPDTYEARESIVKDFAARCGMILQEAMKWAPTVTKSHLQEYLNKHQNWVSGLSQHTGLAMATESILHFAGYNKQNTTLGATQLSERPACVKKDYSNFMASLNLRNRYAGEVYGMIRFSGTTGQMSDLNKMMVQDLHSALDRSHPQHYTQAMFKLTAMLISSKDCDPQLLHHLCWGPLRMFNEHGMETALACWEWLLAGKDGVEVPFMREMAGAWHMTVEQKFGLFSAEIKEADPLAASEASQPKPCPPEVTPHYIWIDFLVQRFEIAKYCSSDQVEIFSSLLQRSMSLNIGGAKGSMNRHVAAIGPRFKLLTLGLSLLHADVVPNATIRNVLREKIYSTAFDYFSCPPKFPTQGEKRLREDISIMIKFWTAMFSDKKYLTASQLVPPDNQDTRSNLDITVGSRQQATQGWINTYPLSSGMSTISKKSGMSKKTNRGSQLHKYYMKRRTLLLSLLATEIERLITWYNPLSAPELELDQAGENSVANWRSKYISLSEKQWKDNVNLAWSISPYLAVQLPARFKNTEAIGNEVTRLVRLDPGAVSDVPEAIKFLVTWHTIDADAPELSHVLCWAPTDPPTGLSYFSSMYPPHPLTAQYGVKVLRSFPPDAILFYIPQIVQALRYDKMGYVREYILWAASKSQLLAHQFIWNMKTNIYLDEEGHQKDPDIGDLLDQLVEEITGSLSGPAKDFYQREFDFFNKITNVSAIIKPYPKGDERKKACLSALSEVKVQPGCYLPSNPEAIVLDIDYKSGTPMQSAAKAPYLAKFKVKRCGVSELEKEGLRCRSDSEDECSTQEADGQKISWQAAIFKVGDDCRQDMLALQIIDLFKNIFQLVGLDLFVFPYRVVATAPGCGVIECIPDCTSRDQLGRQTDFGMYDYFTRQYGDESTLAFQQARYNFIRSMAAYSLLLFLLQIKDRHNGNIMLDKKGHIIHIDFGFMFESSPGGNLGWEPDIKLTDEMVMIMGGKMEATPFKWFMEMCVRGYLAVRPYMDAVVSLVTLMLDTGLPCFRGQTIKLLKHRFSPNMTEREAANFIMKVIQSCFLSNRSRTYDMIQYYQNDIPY
UniProt P36551: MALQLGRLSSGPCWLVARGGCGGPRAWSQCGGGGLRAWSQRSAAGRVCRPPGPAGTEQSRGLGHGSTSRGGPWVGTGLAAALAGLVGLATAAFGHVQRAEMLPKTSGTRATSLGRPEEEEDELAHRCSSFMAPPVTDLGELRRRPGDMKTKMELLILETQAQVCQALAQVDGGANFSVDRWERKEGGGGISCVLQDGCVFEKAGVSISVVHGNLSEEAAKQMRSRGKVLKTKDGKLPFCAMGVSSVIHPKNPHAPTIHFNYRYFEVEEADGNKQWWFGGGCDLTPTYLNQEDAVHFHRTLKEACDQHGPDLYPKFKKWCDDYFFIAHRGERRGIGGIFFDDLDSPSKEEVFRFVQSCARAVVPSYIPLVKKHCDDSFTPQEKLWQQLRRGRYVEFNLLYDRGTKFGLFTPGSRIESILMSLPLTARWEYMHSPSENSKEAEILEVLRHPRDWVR
UniProt P31939: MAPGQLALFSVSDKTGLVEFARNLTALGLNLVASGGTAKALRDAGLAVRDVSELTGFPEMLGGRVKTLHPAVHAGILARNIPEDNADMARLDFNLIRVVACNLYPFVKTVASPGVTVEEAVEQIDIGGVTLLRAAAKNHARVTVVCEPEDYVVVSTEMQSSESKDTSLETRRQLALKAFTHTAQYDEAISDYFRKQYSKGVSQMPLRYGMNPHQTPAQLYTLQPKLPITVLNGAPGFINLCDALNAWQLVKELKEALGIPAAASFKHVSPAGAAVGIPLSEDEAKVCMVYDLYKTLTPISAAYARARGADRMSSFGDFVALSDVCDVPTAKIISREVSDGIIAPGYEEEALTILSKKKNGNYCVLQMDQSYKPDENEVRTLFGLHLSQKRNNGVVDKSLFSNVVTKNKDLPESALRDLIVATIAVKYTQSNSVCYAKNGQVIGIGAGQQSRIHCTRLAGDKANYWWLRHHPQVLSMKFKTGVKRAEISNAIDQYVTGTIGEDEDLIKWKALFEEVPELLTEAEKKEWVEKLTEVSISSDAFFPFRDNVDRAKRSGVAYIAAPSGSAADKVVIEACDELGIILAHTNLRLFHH
UniProt P36873, whole entry, looked up: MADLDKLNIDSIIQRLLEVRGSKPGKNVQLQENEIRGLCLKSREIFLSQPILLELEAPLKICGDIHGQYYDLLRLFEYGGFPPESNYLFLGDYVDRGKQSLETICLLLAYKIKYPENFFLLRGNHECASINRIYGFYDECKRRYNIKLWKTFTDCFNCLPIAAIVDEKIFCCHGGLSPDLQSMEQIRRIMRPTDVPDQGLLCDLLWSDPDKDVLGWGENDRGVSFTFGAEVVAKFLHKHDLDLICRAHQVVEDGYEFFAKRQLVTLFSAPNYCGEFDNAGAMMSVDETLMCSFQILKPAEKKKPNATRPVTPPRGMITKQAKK
UniProt P31943: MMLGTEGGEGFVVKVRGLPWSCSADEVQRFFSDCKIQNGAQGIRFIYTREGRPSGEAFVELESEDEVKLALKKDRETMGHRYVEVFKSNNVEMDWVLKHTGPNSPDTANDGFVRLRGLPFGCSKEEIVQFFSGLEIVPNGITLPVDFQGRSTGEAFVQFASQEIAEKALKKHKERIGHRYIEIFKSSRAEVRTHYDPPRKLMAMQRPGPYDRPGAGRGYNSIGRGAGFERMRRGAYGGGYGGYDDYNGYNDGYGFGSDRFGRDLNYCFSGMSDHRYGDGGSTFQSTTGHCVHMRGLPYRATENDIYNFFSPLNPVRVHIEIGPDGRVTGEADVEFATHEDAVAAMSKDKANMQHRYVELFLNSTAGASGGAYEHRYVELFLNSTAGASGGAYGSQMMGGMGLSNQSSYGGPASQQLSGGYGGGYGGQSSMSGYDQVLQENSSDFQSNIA

compound: COC(=O)C#Cc1ccccc1 [methyl 3-phenylpropiolate]; experiment: log2 ratio of iodoacetamide-alkyne labeling of the cysteine site, DMSO over compound (competition); higher = stronger covalent engagement of the cysteine by the compound, active = 1 or more; conditions: 500 µM; treatment time 1 h; system: HEK293T cell lysate
Outline: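 The log2 competition ratio per cysteine is defined as mean reporter intensity in control channels over mean reporter intensity in compound channels. Lysate from HEK293T cells (2 mg/mL) received electrophile (500 µM) or vehicle for 1 h at ambient temperature, followed by iodoacetamide alkyne for 1 h. Samples were clicked to sCIP-TMT reagents, pooled, trypsin-digested overnight at 37 °C, streptavidin-enriched, acid-eluted and run on Orbitrap Eclipse LC-MS/MS with FAIMS, with quantification in FragPipe. Three replicates with duplicate channels were used, and any cysteine quantified in only one replicate was excluded.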

Row | Target | log2 ratio of iodoacetamide-alkyne labeling
1 | MDH2 C128 (UniProt P40926) | inactive: -0.335
2 | UniProt P35568_C494 | inactive: 0.123
3 | UQCRC1 C453 (UniProt P31930) | inactive: 0.217
4 | RPL9 C74 (UniProt P32969) | inactive: 0.198
5 | TMPO C570 (UniProt P42166) | active: 1.16
6 | EIF2S3 C269 (UniProt P41091) | inactive: 0.221
7 | FDFT1 C6 (UniProt P37268) | inactive: 0.233
8 | HSPA4 C245 (UniProt P34932) | inactive: 0.117
9 | IARS C120 (UniProt P41252) | inactive: -0.0767
10 | EIF2S3 C105 (UniProt P41091) | inactive: 0.341
11 | TAGLN2 C63 (UniProt P37802) | inactive: -0.0663
12 | PPP2R1A C294 (UniProt P30153) | inactive: 0.323
13 | HSPA4 C290 (UniProt P34932) | inactive: 0.0573
14 | PPP2R1B C306 (UniProt P30154) | inactive: 0.0579
15 | SDHA C311 (UniProt P31040) | inactive: 0.021
16 | UniProt P42356_C246 | inactive: 0.65
17 | GTF2F1 C130 (UniProt P35269) | inactive: 0.48
18 | LRPPRC C571 (UniProt P42704) | inactive: 0.236
19 | MCM5 C221 (UniProt P33992) | inactive: 0.195

Single entries from the results shown:
Value for EIF2S3 C269 (UniProt P41091) under log2 ratio of iodoacetamide-alkyne labeling: inactive: 0.221
Value for SDHA C311 (UniProt P31040) under log2 ratio of iodoacetamide-alkyne labeling: inactive: 0.021

(next part)

Row | Target | log2 ratio of iodoacetamide-alkyne labeling
20 | AGL C608 (UniProt P35573) | inactive: 0.194
21 | TMPO C280 (UniProt P42166) | active: 1.09
22 | CDC25C C42 (UniProt P30307) | inactive: 0.613
23 | UniProt P42356_C1774 | inactive: 0.189
24 | PPP2R1A C154 (UniProt P30153) | inactive: 0.637
25 | CPOX C198 (UniProt P36551) | inactive: 0.365
26 | UniProt P42126_C114 | inactive: -0.0618
27 | ATIC C575 (UniProt P31939) | inactive: 0.12
28 | STAT1 C174 (UniProt P42224) | inactive: 0.106
29 | DNAJA1 C302 (UniProt P31689) | inactive: 0.237
30 | PPP1CC C105 (UniProt P36873) | inactive: 0.33
31 | STAT1 C108 (UniProt P42224) | inactive: 0.195
32 | NUP62 C506 (UniProt P37198) | inactive: 0.292
33 | NCAPD3 C1316 (UniProt P42695) | inactive: 0.714
34 | ATIC C241 (UniProt P31939) | inactive: 0.274
35 | HNRNPH1 C267 (UniProt P31943) | inactive: 0.211
36 | RPL3 C336 (UniProt P39023) | inactive: 0.0948
37 | UniProt P42285_C650 | inactive: 0.182
